# Reference: PubChem BioAssay AID1625 (Sanford-Burnham Center for Chemical Genomics, 2009)
# The list shows a part of the results.
# Experiment: insulin promoter activators in MIN6 cells, imaging, high-content screening, mouse beta cells (AID 1625);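 further: total cells summed across four imaged fields per well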
# Conditions: MIN6 insulin promoter-GFP reporter, measured here: cytotoxicity, nuclei count, at 5 µM
row,SMILES,cell count [cells]
1,O=C(OC1CN2CCC1CC2)c1ccc([N+](=O)[O-])cc1 (stereo unspecified),1350
2,CC(C)c1ccc(OP(C)(=O)Nc2ccc(SC(F)(F)F)cc2)cc1 (stereo unspecified),1260
3,CC(C)(C)C(=O)NC(Sc1ccccc1)C(Cl)(Cl)Cl (stereo unspecified),1500
4,CP(=O)(Nc1ccccc1F)Oc1ccccc1 (stereo unspecified),1230
5,CCOc1ccc(C2=NCC(CBr)S2)cc1 (stereo unspecified),1450
6,O=P1(Nc2nc3ccc(Cl)cc3s2)COc2ccccc2O1 (stereo unspecified),881
7,CCCCCOc1ccc(NP(C)(=O)Oc2ccc(Cl)cc2Cl)cc1 (stereo unspecified),1160
8,CN(C)C(=O)Oc1noc2ccccc12,987
9,Cc1ccccc1OP(=O)(Nc1ccccn1)Oc1ccccc1C,1040
10,CP(=O)(Nc1ccccc1)Oc1ccc(F)cc1 (stereo unspecified),1550
11,Cc1ccc(OP(=O)(Nc2ccccn2)Oc2ccc(C)cc2)cc1,1240
12,CC(=O)NC(SC(=S)N(CC(C)C)CC(C)C)C(Cl)(Cl)Cl (stereo unspecified),1230
13,COC(=O)c1cc2c(s1)N=C(c1ccccc1)N(C)P2(=O)N1CCOCC1 (stereo unspecified),1630
14,COc1ccc(OP(C)(=O)Nc2ccc(SC(F)(F)F)cc2)cc1 (stereo unspecified),1180
15,CCOC(=O)c1ccc(NP(C)(=O)Oc2ccc(F)cc2)cc1 (stereo unspecified),922
16,CCOC(=O)NC(Sc1ccccc1)C(Cl)(Cl)Cl (stereo unspecified),1620
17,Cc1ccc(NP(=O)(Oc2cccc(C)c2)Oc2cccc(C)c2)nc1,1160
18,c1ccc(-c2nn[nH]n2)c(-c2nn[nH]n2)c1,1430
19,O=C(NC1CCS(=O)(=O)C1)NP(=S)(Oc1ccccc1)Oc1ccccc1 (stereo unspecified),1180
20,CCNC(=S)/N=C(\N)N[N+](=O)[O-],1480
21,O=C(OC1CN2CCC1CC2)c1cccc(Cl)c1 (stereo unspecified),1090

row,SMILES,cell count [cells]
1,C(Cc1nn[nH]n1)Cc1nn[nH]n1,1160
2,Nc1ccc([As](=O)(O)c2ccc([N+](=O)[O-])cc2)cc1,1300
3,O=[N+]([O-])c1cc([N+](=O)[O-])c(NCC2CCS(=O)(=O)C2)c([N+](=O)[O-])c1 (stereo unspecified),1130
4,Cc1cc(-c2cccc3ccccc23)c(C)cn1.O=[N+]([O-])c1cc([N+](=O)[O-])c(O)c([N+](=O)[O-])c1,1280
5,O=[As](O)(c1ccccc1)c1ccc(O)cc1,1090
6,O=[N+]([O-])c1ncn(CCn2cnc([N+](=O)[O-])n2)n1,1130
7,O=[N+]([O-])c1ccc(OP2(=O)COCCO2)cc1 (stereo unspecified),1090
8,COc1ccc(NP(C)(=O)Oc2ccccc2OC)cc1 (stereo unspecified),1260
9,C[C@H]1OP(=O)(Oc2ccccc2)[C@H](O)[C@H](O)[C@H]1N=[N+]=[N-] (stereo partly specified),1170
10,O=P(Nc1nc2ccccc2s1)(c1ccccc1)c1ccccc1,1370
11,CN(C)CCOC(=O)C(O)(c1ccccc1)C1CCCCC1 (stereo unspecified),1880
12,O=P(Nc1ccccn1)(c1ccc(Br)cc1)c1ccc(Br)cc1,1430
13,COc1ccc(OP(C)(=O)Nc2cccc(Br)c2)cc1 (stereo unspecified),1500
14,Cc1ccccc1NP(C)(=O)Nc1ccccc1C,1090
15,CP(=O)(Nc1ccc2c(c1)OCCO2)Oc1ccccc1 (stereo unspecified),1090
16,c1nnnn1CCn1cnnn1,901
17,CCOP(C)(=S)SCC(=O)NC(C)(CC)C(=O)O (stereo unspecified),1870
18,O=P(Nc1nccs1)(c1ccccc1)c1ccccc1,1290
19,CC(C)C(=O)NC(Sc1ccccc1)C(Cl)(Cl)Cl (stereo unspecified),1540
20,CP(=O)(Nc1ccc(SC(F)(F)F)cc1)Oc1ccc(F)cc1 (stereo unspecified),1080
